Results are given in words; binding and its absence hold for the method and conditions named. In cells and extracts the contact can be indirect. A yes stands for co-enrichment or nearness to the bait. Other partners may have been found. For part of these data: No binding means not detected with the bait. For part of these data: Tags and fused reporters may be left off the sequences shown.
T1: NDUFAF5 with C-terminal FLAG and StrepII tags (human) (UniProt Q5TEU4)
T1 sequence: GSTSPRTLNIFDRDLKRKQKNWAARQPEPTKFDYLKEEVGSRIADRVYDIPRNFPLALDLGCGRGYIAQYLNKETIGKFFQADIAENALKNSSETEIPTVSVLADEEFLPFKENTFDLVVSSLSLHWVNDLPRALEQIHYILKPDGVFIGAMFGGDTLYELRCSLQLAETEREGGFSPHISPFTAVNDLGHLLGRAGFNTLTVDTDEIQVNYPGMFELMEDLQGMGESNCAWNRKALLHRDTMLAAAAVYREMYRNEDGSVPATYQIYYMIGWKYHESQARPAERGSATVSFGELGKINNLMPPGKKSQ

Amino acid sequences for entries named in this document (tags omitted). Residues count along the entry.
UniProt O75251, residues 39-213: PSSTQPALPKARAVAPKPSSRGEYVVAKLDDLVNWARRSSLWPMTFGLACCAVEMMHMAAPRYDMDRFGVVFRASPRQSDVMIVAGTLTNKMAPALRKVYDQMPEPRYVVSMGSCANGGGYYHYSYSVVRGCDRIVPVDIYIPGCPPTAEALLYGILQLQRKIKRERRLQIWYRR
UniProt Q16718: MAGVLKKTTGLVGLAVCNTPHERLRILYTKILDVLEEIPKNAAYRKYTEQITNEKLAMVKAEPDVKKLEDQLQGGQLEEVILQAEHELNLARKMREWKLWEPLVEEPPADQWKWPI
UniProt Q9P032: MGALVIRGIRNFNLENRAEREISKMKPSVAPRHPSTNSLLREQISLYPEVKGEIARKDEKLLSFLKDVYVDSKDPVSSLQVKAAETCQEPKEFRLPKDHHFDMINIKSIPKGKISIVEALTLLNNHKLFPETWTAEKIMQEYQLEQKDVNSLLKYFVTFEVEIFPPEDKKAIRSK
UniProt Q9BU61: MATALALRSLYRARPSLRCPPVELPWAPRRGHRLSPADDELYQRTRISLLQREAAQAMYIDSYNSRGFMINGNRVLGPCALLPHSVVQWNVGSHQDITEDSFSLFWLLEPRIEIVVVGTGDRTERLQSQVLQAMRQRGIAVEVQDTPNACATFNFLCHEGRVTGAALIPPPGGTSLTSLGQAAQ
UniProt O00217, residues 35-210: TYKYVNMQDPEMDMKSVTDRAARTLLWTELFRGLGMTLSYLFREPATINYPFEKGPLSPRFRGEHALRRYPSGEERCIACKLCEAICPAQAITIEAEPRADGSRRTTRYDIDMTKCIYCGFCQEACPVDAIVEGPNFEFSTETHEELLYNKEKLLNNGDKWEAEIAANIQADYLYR
UniProt P03886: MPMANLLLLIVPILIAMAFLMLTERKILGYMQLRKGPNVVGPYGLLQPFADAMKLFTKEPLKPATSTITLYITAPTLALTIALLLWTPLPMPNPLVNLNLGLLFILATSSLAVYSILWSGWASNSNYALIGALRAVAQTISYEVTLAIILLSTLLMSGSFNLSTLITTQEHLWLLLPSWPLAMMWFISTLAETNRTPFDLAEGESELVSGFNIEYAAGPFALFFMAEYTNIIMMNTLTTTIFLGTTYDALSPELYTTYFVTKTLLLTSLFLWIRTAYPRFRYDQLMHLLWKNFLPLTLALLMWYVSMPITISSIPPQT
UniProt Q9UBS4, residues 23-358: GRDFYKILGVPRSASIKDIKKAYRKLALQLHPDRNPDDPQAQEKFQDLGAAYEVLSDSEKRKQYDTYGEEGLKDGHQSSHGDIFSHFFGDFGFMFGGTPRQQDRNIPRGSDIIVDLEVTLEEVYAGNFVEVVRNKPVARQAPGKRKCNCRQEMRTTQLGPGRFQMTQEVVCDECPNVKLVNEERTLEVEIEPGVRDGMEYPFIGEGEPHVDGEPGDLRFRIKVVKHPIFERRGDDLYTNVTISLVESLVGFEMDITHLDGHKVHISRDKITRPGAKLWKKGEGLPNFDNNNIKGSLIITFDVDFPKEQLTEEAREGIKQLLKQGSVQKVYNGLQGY

B1: NDUFAF5 (endogenous) (enzyme, UniProt Q5TEU4 37-345)
chain: T1 sequence
B2: α-aminoadipic semialdehyde dehydrogenase (enzyme, UniProt P49419 27-539)
chain: AFMSTLLINQPQYAWLKELGLREENEGVYNGSWGGRGEVITTYCPANNEPIARVRQASVADYEETVKKAREAWKIWADIPAPKRGEIVRQIGDALREKIQVLGSLVSLEMGKILVEGVGEVQEYVDICDYAVGLSRMIGGPILPSERSGHALIEQWNPVGLVGIITAFNFPVAVYGWNNAIAMICGNVCLWKGAPTTSLISVAVTKIIAKVLEDNKLPGAICSLTCGGADIGTAMAKDERVNLLSFTGSTQVGKQVGLMVQERFGRSLLELGGNNAIIAFEDADLSLVVPSALFAAVGTAGQRCTTARRLFIHESIHDEVVNRLKKAYAQIRVGNPWDPNVLYGPLHTKQAVSMFLGAVEEAKKEGGTVVYGGKVMDRPGNYVEPTIVTGLGHDASIAHTETFAPILYVFKFKNEEEVFAWNNEVKQGLSSSIFTKDLGRIFRWLGPKGSDCGIVNVNIPTSGAEIGGAFGGEKHTGGGRESGSDAWKQYMRRSTCTINYSKDLPLAQGIKFQ
B3: stroma cell-derived factor 2 (protein, UniProt Q99470 19-211)
chain: SSLGVVTCGSVVKLLNTRHNVRLHSHDVRYGSGSGQQSVTGVTSVDDSNSYWRIRGKSATVCERGTPIKCGQPIRLTHVNTGRNLHSHHFTSPLSGNQEVSAFGEEGEGDYLDDWTVLCNGPYWVRDGEVRFKHSSTEVLLSVTGEQYGRPISGQKEVHGMAQPSQNNYWKAMEGIFMKPSELLKAEAHHAEL
B4: stroma cell-derived factor 2-like (protein, UniProt Q9HCN8 29-221)
chain: AKTGAELVTCGSVLKLLNTHHRVRLHSHDIKYGSGSGQQSVTGVEASDDANSYWRIRGGSEGGCPRGSPVRCGQAVRLTHVLTGKNLHTHHFPSPLSNNQEVSAFGEDGEGDDLDLWTVRCSGQHWEREAAVRFQHVGTSVFLSVTGEQYGSPIRGQHEVHGMPSANTHNTWKAMEGIFIKPSVEPSAGHDEL
B5: iron-sulfur cluster scaffold homolog NFU1 (protein, UniProt Q9UMS0 10-254)
chain: GAAAVAAGLRRRFCHMLKNPYTIKKQPLHQFVQRPLFPLPAAFYHPVRYMFIQTQDTPNPNSLKFIPGKPVLETRTMDFPTPAAAFRSPLARQLFRIEGVKSVFFGPDFITVTKENEELDWNLLKPDIYATIMDFFASGLPLVTEETPSGEAGSEEDDEVVAMIKELLDTRIRPTVQEDGGDVIYKGFEDGIVQLKLQGSCTSCPSSIITLKNGIQNMLQFYIPEVEGVEQVMDDESDEKEANSP

biological target: NDUFS7 with C-terminal FLAG and StrepII tags (human) (UniProt O75251); assay: affinity purification with mass spectrometry; SILAC-labeled HEK293T cells overexpressing tagged-NDUFS7, control cells overexpressing tagged-NDUFB3; Strep-tag II affinity purification from mitoplasts, samples mixed, SDS-PAGE, tryptic digestion, quantitative mass spectrometry; both labeling orientations

binding | Molecule
binds | B1
binds | B2

biological target: NDUFS7 with C-terminal FLAG and StrepII tags (human) (UniProt O75251); assay: as above; remark: another data set of the same source

binding | Molecule
binds | complex I subunit NDUFA5 (from UniProt Q16718 1-116)
binds | assembly factor NDUFAF4 (from UniProt Q9P032 1-175)
binds | assembly factor NDUFAF3 (from UniProt Q9BU61 1-184)
binds | complex I subunit NDUFS8 (from UniProt O00217 35-210)

biological target: T1, NDUFAF5 with C-terminal FLAG and StrepII tags (human); assay: affinity purification with mass spectrometry; SILAC-labeled HEK293T cells overexpressing tagged-NDUFAF5, control cells overexpressing tagged-METTL12; Strep-tag II affinity purification from mitoplasts, samples mixed, SDS-PAGE, tryptic digestion, quantitative mass spectrometry; both labeling orientations

binding | Molecule
no binding | MT-ND1 (from UniProt P03886 1-318)
binds | NDUFS7 subunit of complex I (endogenous) (from UniProt O75251 39-213)
binds | DNAJ homolog subfamily B member 11 (from UniProt Q9UBS4 23-358)
binds | B3
binds | B4
binds | B5
